Measured values reported in PubChem BioAssay AID588590 (National Center for Advancing Translational Sciences (NCATS), 2011).
Among all 390,000 compounds or so, about 4,000 (1%) were called active. Inconclusive results, whose numbers are uncertain, are shown with a selection of clear calls. Calls follow the shape of the dose curve; as a rule, active = well fitted inhibition curve with a large enough effect; inconclusive = small, poorly fitted or top-dose-only effect, or another doubt; inactive = no such curve, though single readings can be large or run the other way. Potencies of inconclusive entries are doubtful fits and often do not repeat.

Protein sequences, listed by entry. Tags and fused reporters are not part of them. Lines headed by an entry give the natural chain unless they say otherwise; changes in a name come on top.
UniProt Q9UNA4: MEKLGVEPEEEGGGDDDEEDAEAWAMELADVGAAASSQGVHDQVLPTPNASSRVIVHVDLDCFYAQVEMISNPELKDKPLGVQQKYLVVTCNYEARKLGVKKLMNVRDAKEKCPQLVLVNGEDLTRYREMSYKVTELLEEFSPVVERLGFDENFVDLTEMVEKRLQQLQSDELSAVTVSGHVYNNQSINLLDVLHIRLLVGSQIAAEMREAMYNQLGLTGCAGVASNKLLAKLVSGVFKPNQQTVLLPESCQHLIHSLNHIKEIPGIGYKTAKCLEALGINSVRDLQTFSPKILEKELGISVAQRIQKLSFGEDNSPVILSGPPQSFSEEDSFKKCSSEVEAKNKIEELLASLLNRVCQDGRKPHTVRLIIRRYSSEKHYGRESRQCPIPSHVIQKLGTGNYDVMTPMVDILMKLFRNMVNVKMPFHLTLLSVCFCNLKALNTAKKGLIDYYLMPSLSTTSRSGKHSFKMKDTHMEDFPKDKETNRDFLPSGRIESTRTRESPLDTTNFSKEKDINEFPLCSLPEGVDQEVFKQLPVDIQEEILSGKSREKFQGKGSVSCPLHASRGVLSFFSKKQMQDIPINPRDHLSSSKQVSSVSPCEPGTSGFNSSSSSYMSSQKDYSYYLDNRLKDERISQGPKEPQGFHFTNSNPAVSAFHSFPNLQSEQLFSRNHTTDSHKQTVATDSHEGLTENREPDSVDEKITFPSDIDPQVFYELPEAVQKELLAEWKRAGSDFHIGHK

Biological target: DNA polymerase iota (Homo sapiens) (UniProt Q9UNA4)
Assay: qHTS for Inhibitors of Polymerase Iota
Details: Pol iota fluorescent replication assay, 10 min; series mostly up to 115 µM; activity, negative = inhibition: at the top concentration
In short: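 Pol iota at 10 nM preincubated 15 min with compounds at room temperature; reaction started with fluorescent substrate, 50 nM final. Fluorescence read kinetically at 0 and 10 min; buffer-only wells as negative control.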
Potency is read from the fitted curve at half-maximal effect.

Potency, inconclusive:
CCc1nnc(NS(=O)(=O)c2ccc(NCc3cc(Cl)ccc3O)cc2)s1 35.5 µM [inhibitor, single point]
CCOc1ccc(NC(=O)CCC(=O)N/N=C/c2ccc([N+](=O)[O-])s2)cc1 100 µM [inhibitor, partial curve, poor fit]
Cc1nc([N+](=O)[O-])c(N2CCOCC2)n1Cc1ccccc1 89.1 µM [inhibitor, single point]
COc1ccc(NC(=O)/C=C/c2ccc(C)o2)cc1S(=O)(=O)N1CCOCC1 17.8 µM [inhibitor, full curve, poor fit]
O=C(Nc1ccc2c(c1)OCCO2)c1ccccc1F 11.2 µM [inhibitor, partial curve]
COC(=O)c1sccc1NC(=O)c1cccc(OC)c1 79.4 µM [inhibitor, single point]
Cc1ccc2c(=O)cc(C(=O)NCc3ccccc3)oc2c1 89.1 µM [inhibitor, single point]
O=C(NCCc1ccccc1)c1ccc2c(c1)S(=O)(=O)c1ccccc1C2=O 20 µM [inhibitor, single point]
CCOc1ccc2nc(N3CCN(C(=O)c4ccco4)CC3)sc2c1 8.91 µM [inhibitor, partial curve, poor fit]
CN(Cc1ccco1)C(=O)CSc1nn2c(=O)c(C(C)(C)C)nnc2s1 39.8 µM [inhibitor, partial curve]
CCOc1ccc(N(CC(=O)NCC2CCCO2)C(=O)CCC(=O)Nc2ccccn2)cc1 (configuration not stated) 39.8 µM [inhibitor, single point]
NC(=S)c1cc2ccc(O)cc2oc1=O 15.8 µM [inhibitor, full curve, poor fit]
Cc1ccccc1C(=O)OC1CCN(C)CC1 4.47 µM [inhibitor, full curve, poor fit]
O=[N+]([O-])c1ccc(/C=N/Nc2nc(N3CCCC3)nc(N3CCCC3)n2)o1 56.2 µM [inhibitor, partial curve, poor fit]
CC(C)(C#CC(O)(c1ccccc1)c1ccccc1)N1CCCC1 100 µM [inhibitor, single point]
CCn1ccnc1CN1CCN(CC=C(C)C)C(CCO)C1 (configuration not stated) 79.4 µM [inhibitor, partial curve, poor fit]
Cc1cc(-c2nnc(SCC(=O)Nc3nc(-c4ccccc4)cs3)o2)no1 56.2 µM [inhibitor, single point]
OCCOCCn1c(C(CO)Nc2nc(-c3ccc(Cl)cc3)cs2)nc2ccccc21 (configuration not stated) 20 µM [inhibitor, partial curve, poor fit]
Cc1ccc(-c2csc3nc(C)n(-n4c(C)ccc4C)c(=O)c23)o1 14.1 µM [inhibitor, partial curve]
COc1ccc(S(=O)(=O)c2c(Nc3ccccc3F)sc(C(=O)c3cccc(OC)c3)c2N)cc1 89.1 µM [inhibitor, partial curve, poor fit]
CCOC(=O)c1sc(NC(=O)CSc2nc3c(cc2C#N)CCCCCC3)c(C#N)c1C 3.16 µM [inhibitor, partial curve, poor fit]
Cc1ccc(C(=O)OCC(=O)Nc2cccc(S(=O)(=O)N3CCCCC3)c2)o1 50.1 µM [inhibitor, partial curve, poor fit]
O=C(Nc1nccs1)c1sc2ccccc2c1Cl 7.08 µM [inhibitor, partial curve, poor fit]
Cc1ccc2c(c1)nnc1nnc(SCC(=O)O)n12 89.1 µM [inhibitor, single point]
CCN(CC(=O)Nc1c(F)cccc1F)C(=O)C(C)SCc1nc2sc(C)c(C)c2c(=O)[nH]1 (configuration not stated) 89.1 µM [inhibitor, single point]
O=C(Nc1ccc(N2C(=O)C3C4C=CC(C4)C3C2=O)cc1)Nc1nncs1 (configuration not stated) 0.631 µM [inhibitor, full curve, poor fit]
O=C(Cc1ccc(Br)cc1)N(Cc1ccccc1)c1ccccn1 89.1 µM [inhibitor, single point]
CCN(c1ccccc1)S(=O)(=O)c1ccc(OC)c(NC(=O)C2=NN(c3ccccc3)C(=O)CC2)c1 56.2 µM [inhibitor, partial curve, poor fit]
Cc1nnc(N/N=C/c2ccc([N+](=O)[O-])cc2)n1N 5.01 µM [inhibitor, full curve, poor fit]

Among those listed so far, these contain a Cl atom.
Potency, inconclusive:
CCc1nnc(NS(=O)(=O)c2ccc(NCc3cc(Cl)ccc3O)cc2)s1 35.5 µM [inhibitor, single point]
OCCOCCn1c(C(CO)Nc2nc(-c3ccc(Cl)cc3)cs2)nc2ccccc21 (configuration not stated) 20 µM [inhibitor, partial curve, poor fit]
O=C(Nc1nccs1)c1sc2ccccc2c1Cl 7.08 µM [inhibitor, partial curve, poor fit]

Following part.

Potency, active:
CC1C/C(=N\NC(N)=S)c2cc(Cl)ccc2S1 (configuration not stated) 79.4 µM
COc1cc2c(NC3CCN(C)CC3)nc(N3CCCCC3)nc2cc1OCCCN(C)C 39.8 µM

activity, negative = inhibition, inactive:
CC1CCCC(C)N1C(=O)COC(=O)c1ccc(S(=O)(=O)N(C)c2ccccc2)cc1 (configuration not stated) 8.37%
CCC(NS(=O)(=O)c1ccc(C)cc1)C(=O)N1CCOCCOCCOCCOCC1 (configuration not stated) 98.2%
CCOc1ccc(CCNC(=O)c2nnc(Cc3ccc(Cl)cc3Cl)o2)cc1OCC 24.3%
NS(=O)(=O)c1ccc(NC(=O)/C=C/c2ccc(S(=O)(=O)NCc3ccco3)cc2)cc1 2.97%
CN(C)/C=C/c1[nH]c(=O)[nH]c(=O)c1[N+](=O)[O-] 27.7%
CCCc1cc(=O)oc2c(C)c(OCC(=O)NCc3ccccn3)ccc12 -18.4%
O=C(Nc1ccccc1F)c1ccc(Cn2nc(N3CCN(c4ccccc4)CC3)ccc2=O)o1 18.4%
COc1ccccc1C(=O)NCCC(=O)NC(C)c1ccc(-n2ccnc2)cc1 (configuration not stated) 23.6%
CC(=O)N=c1sc2ccccc2n1C 5.99%
CCCCCCCCCCCCCCCC[n+]1ccc(/C=C/c2c(C)[nH]c3ccccc23)cc1 15.9%
Cc1ccc(-c2cc(C(=O)N3CCN(c4ccccc4O)CC3)c3ccccc3n2)cc1 19.2%
